Values from PubChem BioAssay AID504786 (Drosophila RNAi Screening Center, 2011)

Aim: 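Fly genes required for HIF-dependent transcription when hypoxia is mimicked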 (primary screen)
Cells: Drosophila S2 cells with a stable HIF luciferase reporter
Reagent: long dsRNA against Drosophila genes, about 0.2 µg dsRNA per well of a 384-well plate
Time to read-out: three days of knock-down, then 20 h of DFO before reading
Challenge: desferrioxamine (DFO) at 100 µM, an iron chelator that mimics hypoxia, for 20 h
Detection: 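Firefly luciferase driven by the mouse ldh-a hypoxia-response element, measured after 20 h of 100 µM DFO; z-scores per plate, higher means more signal lost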
Scale: z-score: higher = stronger loss of HIF reporter signal
In all, the deposit lists about 21,000 reagents; this is an unselected part of those with a known target gene and a result. 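Primary screen; positive scores mean lost reporter signal, so the sign may be inverted from the usual convention.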 A plus sign joins genes that one reagent is predicted to hit. Not all columns of the deposit are shown.

After knock-down of CG31323 [DRSC14901], the screen gave z-score, replicate 1 = -0.4.
With knock-down of CG3598 [DRSC18471] the results were z-score, replicate 1 = -0.3.
After knock-down of stnB + stnA [DRSC20969], the record shows z-score, replicate 1 = 0.2.
stnB + stnA [DRSC21112] scored z-score, replicate 1 = 0.1.
Silencing of stnB + stnA [DRSC21113] resulted in: z-score, replicate 1 = -0.3.
Depletion of CG15117 [DRSC06539] came out at: z-score, replicate 1 = -0.1.
Silencing of CG15739 [DRSC19705] gave: z-score, replicate 1 = -0.2.
For aop [DRSC00801] the deposit lists z-score, replicate 1 = 0.9.
After knock-down of eIF3d1 [DRSC16938] the results were z-score, replicate 1 = 4.8.
ord [DRSC04706] showed z-score, replicate 1 = -0.2.
For Arms [DRSC03856], the entry reads z-score, replicate 1 = -0.4.
Silencing of Arms [DRSC03857] came out at: z-score, replicate 1 = -0.2.
Depletion of Arms [DRSC04052] came out at: z-score, replicate 1 = -0.2.
After knock-down of Arms [DRSC04256] the results were z-score, replicate 1 = 0.8.

A few values from above:
Under “z-score, replicate 1”, CG15739 [DRSC19705] reads -0.2
For “z-score, replicate 1”, eIF3d1 [DRSC16938] reads 4.8
Value of Arms [DRSC04256] in “z-score, replicate 1”: 0.8
Under “z-score, replicate 1”, stnB + stnA [DRSC20969] is entered as 0.2

The listing continues.
With knock-down of TTLL4B [DRSC00636], the screen gave z-score, replicate 1 = -0.2.
For Gr10b [DRSC19477], the entry reads z-score, replicate 1 = -0.2.
After knock-down of CG8152 [DRSC07083], the screen gave z-score, replicate 1 = -0.1.
Against CG30379 [DRSC05070] the deposit lists z-score, replicate 1 = 0.
For CG4210 [DRSC15551], the entry reads z-score, replicate 1 = -0.3.
After knock-down of mtm [DRSC03576] the results were z-score, replicate 1 = -0.4.
Knock-down of p130CAS + Dic61B [DRSC08588] came out at: z-score, replicate 1 = -0.2.
After knock-down of CG4287 [DRSC15559] the results were z-score, replicate 1 = 0.
NT1 [DRSC08530] showed z-score, replicate 1 = -0.3.
rsh [DRSC18966] showed z-score, replicate 1 = -0.4.
For rsh [DRSC19816] the deposit lists z-score, replicate 1 = -0.4.
With knock-down of Rad60 [DRSC15580] the results were z-score, replicate 1 = -0.2.
Knock-down of beta3GalTII [DRSC07253] gave: z-score, replicate 1 = -0.1.
With knock-down of mus81 [DRSC18180], the screen gave z-score, replicate 1 = -0.3.
For mus81 [DRSC18644] the deposit lists z-score, replicate 1 = -0.3.
Rpt1 [DRSC07542] scored z-score, replicate 1 = 6.4.
BCL7-like [DRSC17729] showed z-score, replicate 1 = -0.1.
Against Ndc1 [DRSC15895], the values are z-score, replicate 1 = 0.
Against mod(mdg4) + pre-mod(mdg4)-Z + pre-mod(mdg4)-T [DRSC13477] the deposit lists z-score, replicate 1 = 0.6.
With knock-down of mod(mdg4) + pre-mod(mdg4)-Z + pre-mod(mdg4)-T [DRSC17001], the screen gave z-score, replicate 1 = 0.2.
With knock-down of Tbc1d8-9 [DRSC11820] the results were z-score, replicate 1 = 0.1.
With knock-down of Obp28a [DRSC03394] the results were z-score, replicate 1 = -0.2.
After knock-down of CG15172 [DRSC02473] the results were z-score, replicate 1 = -0.2.
Depletion of CG14629 [DRSC18476] gave: z-score, replicate 1 = 0.
Against CG3626 [DRSC18318], the values are z-score, replicate 1 = -0.2.
Nct [DRSC16172] showed z-score, replicate 1 = -0.3.
